# According to US20260217861A1:
# Changes are numbered by the printed parent chain. These are yes or no findings as the source states them, for the method shown. Some entries that bind do so weakly or less than the wild type.
# T1: humanised GPV of hGp5^KIN mice (human extracellular domain, mouse transmembrane and intracellular domain) (human; mouse) (UniProt P40197)
# T1 sequence: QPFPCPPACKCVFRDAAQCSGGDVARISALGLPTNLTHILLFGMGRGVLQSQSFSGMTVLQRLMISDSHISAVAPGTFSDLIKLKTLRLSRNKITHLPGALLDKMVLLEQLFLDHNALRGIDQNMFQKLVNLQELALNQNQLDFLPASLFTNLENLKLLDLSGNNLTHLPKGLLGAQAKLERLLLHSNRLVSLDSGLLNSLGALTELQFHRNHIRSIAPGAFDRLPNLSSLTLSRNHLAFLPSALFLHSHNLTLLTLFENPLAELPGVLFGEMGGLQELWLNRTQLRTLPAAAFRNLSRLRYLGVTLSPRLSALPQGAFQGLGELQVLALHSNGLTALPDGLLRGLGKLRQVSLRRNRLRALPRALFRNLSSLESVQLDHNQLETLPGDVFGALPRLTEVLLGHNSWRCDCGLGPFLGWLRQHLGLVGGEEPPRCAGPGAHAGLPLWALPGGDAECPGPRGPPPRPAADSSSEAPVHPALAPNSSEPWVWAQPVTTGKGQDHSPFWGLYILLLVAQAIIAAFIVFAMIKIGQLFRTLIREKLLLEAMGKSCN
# T2: recombinant ectodomain of human GPV (rhGPV) (human) (UniProt P40197)
# T2 sequence: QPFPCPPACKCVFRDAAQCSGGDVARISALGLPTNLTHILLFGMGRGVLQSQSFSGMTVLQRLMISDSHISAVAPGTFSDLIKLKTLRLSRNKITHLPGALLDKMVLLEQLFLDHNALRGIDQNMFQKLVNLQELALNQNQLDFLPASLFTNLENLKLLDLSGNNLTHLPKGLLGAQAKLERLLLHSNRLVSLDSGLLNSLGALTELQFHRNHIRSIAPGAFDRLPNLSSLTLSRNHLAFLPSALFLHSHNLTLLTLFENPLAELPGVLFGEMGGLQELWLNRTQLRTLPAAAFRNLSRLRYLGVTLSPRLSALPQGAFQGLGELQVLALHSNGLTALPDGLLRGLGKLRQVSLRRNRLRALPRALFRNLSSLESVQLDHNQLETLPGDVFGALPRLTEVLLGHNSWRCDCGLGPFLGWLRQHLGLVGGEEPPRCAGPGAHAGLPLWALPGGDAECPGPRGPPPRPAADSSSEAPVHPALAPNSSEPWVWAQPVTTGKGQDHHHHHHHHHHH
# B1: LUM11 (antibody, V domains shown)
# VH: QVQLKESGPGLVQPSQTLSLTCTVSGFSLTSYGVNWVRQPPGKGLEWIAAISSGGSTYYNSSLKSRLSISRDTSKSQVFLKMNSLQTEDTAIYFCTRGYYGYDYDYFDYWGQGVMVTVSS
# VL: NIQLTQSPSLLSASVGDRVTLSCKGSQNINNYLAWYQQKLGEAPKLLIYNTNSLQTGIPSRFSGGGSGADYTLTISSLQPEDVATYLCYQYNNGYTFGAGTKMELK
# B2: LUM/B (antibody, V domains shown)
# VH: EVQLVESGGGLVQPGRSLKLSCAASGFTFSDYNMAWVRQAPKKGLEWVATFIYDGSNTYYGDSVKGRFTVSRDNAKSTLYLQMDSLRSEDTATYYCTTHTWANWFAYWGQGTLVTVSS
# VL: B1 VL with S9A, K24R, N50S, G65S, A69T, L87F, A99P, M103L
# Columns and labels:
# [1] = biological target: T1, humanised GPV of hGp5^KIN mice (human extracellular domain, mouse transmembrane and intracellular domain) (human; mouse); assay: flow cytometry of platelets from LUM11-injected hGp5^KIN mice
# [2] = biological target: T2, recombinant ectodomain of human GPV (rhGPV) (human); assay: fluorescent staining of rhGPV in the static fibrin polymerisation assay, confocal microscopy
Binder,binding [1],binding [2]
B1,binds,
B2,,binds
